# Assay results as given in the supplement of paper PMC8728848.
# The list shows a part of the results.
# Tests used:
# Experiment in all cases: glycan array binding signal (z-score within array); higher = stronger binding
# Conditions in all cases: glycan notation: IUPAC condensed, linker removed
# [1] = target: Gal(b1-4)GlcNAc(b1-3)Gal(b1-4)GlcNAc(b1-2)[Gal(b1-4)GlcNAc(b1-3)Gal(b1-4)GlcNAc(b1-6)]Man(a1-6)[Gal(b1-4)GlcNAc(b1-3)Gal(b1-4)GlcNAc(b1-2)Man(a1-3)]Man(b1-4)GlcNAc(b1-4)GlcNAc
# In short: (§1)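 Negative Z-scores can be read as non-binding. The Z-score is calculated within each array and then averaged across arrays of one protein sequence at different concentrations or buffers and across linkers. Arrays, 3228 in all, were curated from the Consortium for Functional Glycomics database and kept only where the protein sequence was available.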
# [2] = target: Gal(b1-4)GlcNAc(b1-3)Gal(b1-4)GlcNAc(b1-2)[Gal(b1-4)GlcNAc(b1-3)Gal(b1-4)GlcNAc(b1-6)]Man(a1-6)[Gal(b1-4)GlcNAc(b1-3)Gal(b1-4)GlcNAc(b1-2)Man(a1-3)]Man(b1-4)GlcNAc(b1-4)[Fuc(a1-6)]GlcNAc
# In short: as §1
# [3] = target: Gal(b1-4)GlcNAc(b1-3)Gal(b1-4)GlcNAc(b1-3)Gal(b1-4)GlcNAc
# In short: as §1
# [4] = target: Gal(b1-4)GlcNAc(b1-3)Gal(b1-4)GlcNAc(b1-3)Gal(b1-4)GlcNAc(b1-2)Man(a1-3)[Gal(b1-4)GlcNAc(b1-3)Gal(b1-4)GlcNAc(b1-3)Gal(b1-4)GlcNAc(b1-2)Man(a1-6)]Man(b1-4)GlcNAc(b1-4)GlcNAc
# In short: as §1
# [5] = target: Gal(b1-4)GlcNAc(b1-3)Gal(b1-4)GlcNAc(b1-3)Gal(b1-4)GlcNAc(b1-2)Man(a1-3)[Gal(b1-4)GlcNAc(b1-3)Gal(b1-4)GlcNAc(b1-3)Gal(b1-4)GlcNAc(b1-2)Man(a1-6)]Man(b1-4)GlcNAc(b1-4)[Fuc(a1-6)]GlcNAc
# In short: as §1
# [6] = target: Gal(b1-4)GlcNAc(b1-3)Gal(b1-4)GlcNAc(b1-3)Gal(b1-4)GlcNAc(b1-2)[Gal(b1-4)GlcNAc(b1-3)Gal(b1-4)GlcNAc(b1-3)Gal(b1-4)GlcNAc(b1-6)]Man(a1-6)[Gal(b1-4)GlcNAc(b1-3)Gal(b1-4)GlcNAc(b1-3)Gal(b1-4)GlcNAc(b1-2)Man(a1-3)]Man(b1-4)GlcNAc(b1-4)[Fuc(a1-6)]GlcNAc
# In short: as §1
# [7] = target: Gal(b1-4)GlcNAc(b1-3)Gal(b1-4)GlcNAc(b1-3)Gal(b1-4)GlcNAc(b1-3)Gal(b1-4)GlcNAc(b1-2)Man(a1-3)[Gal(b1-4)GlcNAc(b1-3)Gal(b1-4)GlcNAc(b1-3)Gal(b1-4)GlcNAc(b1-3)Gal(b1-4)GlcNAc(b1-2)Man(a1-6)]Man(b1-4)GlcNAc(b1-4)GlcNAc
# In short: as §1
# [8] = target: Gal(b1-4)GlcNAc(b1-3)Gal(b1-4)GlcNAc(b1-3)Gal(b1-4)GlcNAc(b1-3)Gal(b1-4)GlcNAc(b1-2)Man(a1-3)[Gal(b1-4)GlcNAc(b1-3)Gal(b1-4)GlcNAc(b1-3)Gal(b1-4)GlcNAc(b1-3)Gal(b1-4)GlcNAc(b1-2)Man(a1-6)]Man(b1-4)GlcNAc(b1-4)[Fuc(a1-6)]GlcNAc
# In short: as §1
# [9] = target: Gal(b1-4)GlcNAc(b1-3)Gal(b1-4)GlcNAc(b1-3)Gal(b1-4)GlcNAc(b1-3)Gal(b1-4)GlcNAc(b1-2)[Gal(b1-4)GlcNAc(b1-3)Gal(b1-4)GlcNAc(b1-3)Gal(b1-4)GlcNAc(b1-3)Gal(b1-4)GlcNAc(b1-6)]Man(a1-6)[Gal(b1-4)GlcNAc(b1-3)Gal(b1-4)GlcNAc(b1-3)Gal(b1-4)GlcNAc(b1-3)Gal(b1-4)GlcNAc(b1-2)Man(a1-3)]Man(b1-4)GlcNAc(b1-4)[Fuc(a1-6)]GlcNAc
# In short: as §1
# [10] = target: Gal(b1-4)GlcNAc(b1-3)Gal(b1-4)GlcNAc(b1-3)Gal(b1-4)GlcNAc(b1-3)Gal(b1-4)GlcNAc(b1-3)Gal(b1-4)GlcNAc(b1-2)Man(a1-3)[Gal(b1-4)GlcNAc(b1-3)Gal(b1-4)GlcNAc(b1-3)Gal(b1-4)GlcNAc(b1-3)Gal(b1-4)GlcNAc(b1-3)Gal(b1-4)GlcNAc(b1-2)Man(a1-6)]Man(b1-4)GlcNAc(b1-4)GlcNAc
# In short: as §1
# [11] = target: Gal(b1-4)GlcNAc(b1-3)Gal(b1-4)GlcNAc(b1-3)Gal(b1-4)GlcNAc(b1-3)Gal(b1-4)GlcNAc(b1-3)Gal(b1-4)GlcNAc(b1-2)Man(a1-3)[Gal(b1-4)GlcNAc(b1-3)Gal(b1-4)GlcNAc(b1-3)Gal(b1-4)GlcNAc(b1-3)Gal(b1-4)GlcNAc(b1-3)Gal(b1-4)GlcNAc(b1-2)Man(a1-6)]Man(b1-4)GlcNAc(b1-4)[Fuc(a1-6)]GlcNAc
# In short: as §1
# [12] = target: Gal(b1-4)GlcNAc(b1-3)Gal(b1-4)GlcNAc(b1-3)Gal(b1-4)GlcNAc(b1-3)Gal(b1-4)GlcNAc(b1-3)Gal(b1-4)GlcNAc(b1-2)[Gal(b1-4)GlcNAc(b1-3)Gal(b1-4)GlcNAc(b1-3)Gal(b1-4)GlcNAc(b1-3)Gal(b1-4)GlcNAc(b1-3)Gal(b1-4)GlcNAc(b1-6)]Man(a1-6)[Gal(b1-4)GlcNAc(b1-3)Gal(b1-4)GlcNAc(b1-3)Gal(b1-4)GlcNAc(b1-3)Gal(b1-4)GlcNAc(b1-3)Gal(b1-4)GlcNAc(b1-2)Man(a1-3)]Man(b1-4)GlcNAc(b1-4)[Fuc(a1-6)]GlcNAc
# In short: as §1
# [13] = target: Gal(b1-4)GlcNAc(b1-3)Gal(b1-4)GlcNAc(b1-3)Gal(b1-4)GlcNAc(b1-3)Gal(b1-4)GlcNAc(b1-3)Gal(b1-4)GlcNAc(b1-3)Gal(b1-4)GlcNAc(b1-2)Man(a1-3)[Gal(b1-4)GlcNAc(b1-3)Gal(b1-4)GlcNAc(b1-3)Gal(b1-4)GlcNAc(b1-3)Gal(b1-4)GlcNAc(b1-3)Gal(b1-4)GlcNAc(b1-3)Gal(b1-4)GlcNAc(b1-2)Man(a1-6)]Man(b1-4)GlcNAc(b1-4)GlcNAc
# In short: as §1
# [14] = target: Gal(b1-4)GlcNAc(b1-3)Gal(b1-4)GlcNAc(b1-3)GalNAc
# In short: as §1
# [15] = target: Gal(b1-4)GlcNAc(b1-3)Gal(b1-4)GlcNAc(b1-3)[Gal(b1-4)GlcNAc(b1-3)Gal(b1-4)GlcNAc(b1-6)]GalNAc
# In short: as §1
# [16] = target: Gal(b1-4)GlcNAc(b1-3)Gal(b1-4)GlcNAc(b1-6)[Gal(b1-3)]GalNAc
# In short: as §1
# [17] = target: Gal(b1-4)GlcNAc(b1-3)Gal(b1-4)[Fuc(a1-3)]GlcNAc(b1-3)Gal(b1-4)[Fuc(a1-3)]GlcNAc
# In short: as §1
# [18] = target: Gal(b1-4)GlcNAc(b1-3)GalNAc
# In short: as §1
# [19] = target: Gal(b1-4)GlcNAc(b1-3)[Fuc(a1-3)GlcNAc(b1-6)]Gal(b1-4)Glc
# In short: as §1
# [20] = target: Gal(b1-4)GlcNAc(b1-3)[Gal(b1-4)GlcNAc(b1-6)]Gal(b1-4)GlcNAc
# In short: as §1
# [21] = target: Gal(b1-4)GlcNAc(b1-3)[GlcNAc(b1-6)]Gal(b1-4)GlcNAc
# In short: as §1
# [22] = target: Gal(b1-4)GlcNAc(b1-6)Gal(b1-4)GlcNAc
# In short: as §1
# [23] = target: Gal(b1-4)GlcNAc(b1-6)GalNAc
# In short: as §1
# [24] = target: Gal(b1-4)GlcNAc(b1-6)[Gal(b1-3)]GalNAc
# In short: as §1
# [25] = target: Gal(b1-4)GlcNAc(b1-6)[Gal(b1-4)GlcNAc(b1-3)]GalNAc
# In short: as §1
# [26] = target: Gal(b1-4)GlcNAc6P
# In short: as §1
# [27] = target: Gal(b1-6)Gal
# In short: as §1
# [28] = target: Gal3S(b1-3)GalNAc
# In short: as §1
# [29] = target: Gal3S(b1-3)GlcNAc
# In short: as §1
# [30] = target: Gal3S(b1-3)[Fuc(a1-4)]GlcNAc
# In short: as §1
# [31] = target: Gal3S(b1-4)Glc
# In short: as §1
# [32] = target: Gal3S(b1-4)Glc6S
# In short: as §1
# [33] = target: Gal3S(b1-4)GlcNAc
# In short: as §1
# [34] = target: Gal3S(b1-4)[Fuc(a1-3)]Glc6S
# In short: as §1
# [35] = target: Gal3S(b1-4)[Fuc(a1-3)]GlcNAc
# In short: as §1
# [36] = target: Gal3S(b1-4)[Fuc(a1-3)]GlcNAc6S
# In short: as §1
# [37] = target: Gal3S4S(b1-4)GlcNAc
# In short: as §1
binder,measurement,setting,value
SJCP1084 (Schistosoma japonicum) (protein) MRIINLVIISTALLLINLLQTKSQANGEDTKNGTPDDPGLTKSTELKVEVQALLKDKKTNMRVKWNENLLDNTKPEYHNLRDEACELLLQIVRSVVPLSQDDGECKDVTFTKYVVGTKDGAVNVKLTITFKDSVAINQKPMDLKLKLENDFKNLQSESTLKATKPTFTVKVEKRLIPISKPQTTPPTTAKNDASKENVGDIGGEDSTVPTAAPATAASANEEKDEGDKDNKDSQHPNVLTSNVNDRNLIIALVALMILAIGVALTAAVKQR,glycan array binding signal (z-score),[1],1.96
same,glycan array binding signal (z-score),[2],1.94
same,glycan array binding signal (z-score),[3],0.195
same,glycan array binding signal (z-score),[4],1.75
same,glycan array binding signal (z-score),[5],3.35
same,glycan array binding signal (z-score),[6],1.02
same,glycan array binding signal (z-score),[7],0.988
same,glycan array binding signal (z-score),[8],3.73
same,glycan array binding signal (z-score),[9],0.897
same,glycan array binding signal (z-score),[10],4.37
same,glycan array binding signal (z-score),[11],4.28
same,glycan array binding signal (z-score),[12],4.79
same,glycan array binding signal (z-score),[13],-0.194
same,glycan array binding signal (z-score),[14],1.08
same,glycan array binding signal (z-score),[15],1.47
same,glycan array binding signal (z-score),[16],1.52
same,glycan array binding signal (z-score),[17],-0.674
same,glycan array binding signal (z-score),[18],-0.074
same,glycan array binding signal (z-score),[19],1.21
same,glycan array binding signal (z-score),[20],0.357
same,glycan array binding signal (z-score),[21],-0.548
same,glycan array binding signal (z-score),[22],0.142
same,glycan array binding signal (z-score),[23],1.48
same,glycan array binding signal (z-score),[24],0.73
same,glycan array binding signal (z-score),[25],-0.704
same,glycan array binding signal (z-score),[26],-0.571
same,glycan array binding signal (z-score),[27],-1.05
same,glycan array binding signal (z-score),[28],0.411
same,glycan array binding signal (z-score),[29],-0.3
same,glycan array binding signal (z-score),[30],-0.442
same,glycan array binding signal (z-score),[31],1.79
same,glycan array binding signal (z-score),[32],-0.27
same,glycan array binding signal (z-score),[33],-0.79
same,glycan array binding signal (z-score),[34],1.26
same,glycan array binding signal (z-score),[35],0.218
same,glycan array binding signal (z-score),[36],0.322
same,glycan array binding signal (z-score),[37],-0.786

# Two records picked at random from the list so far:
binder,measurement,setting,value
SJCP1084 (Schistosoma japonicum) (protein) MRIINLVIISTALLLINLLQTKSQANGEDTKNGTPDDPGLTKSTELKVEVQALLKDKKTNMRVKWNENLLDNTKPEYHNLRDEACELLLQIVRSVVPLSQDDGECKDVTFTKYVVGTKDGAVNVKLTITFKDSVAINQKPMDLKLKLENDFKNLQSESTLKATKPTFTVKVEKRLIPISKPQTTPPTTAKNDASKENVGDIGGEDSTVPTAAPATAASANEEKDEGDKDNKDSQHPNVLTSNVNDRNLIIALVALMILAIGVALTAAVKQR,glycan array binding signal (z-score),[10],4.37
same,glycan array binding signal (z-score),[32],-0.27
